Assay results: publication PMC5532393
These are yes or no findings as the source states them, for the method shown. In cells and extracts the contact can be indirect.

Legend:
Settings in all cases: remark: other sources report otherwise
[1] = biological target: T1, Arc (activity-regulated, cytoskeleton-associated gene) (mouse (endogenous in cortex and hippocampus)), Q9WV31; experiment: co-IP; nuclear and synaptoneurosome fractions of P30 WT mouse hippocampal lysate; Arc immunoprecipitated; immunoblot
T1 chain: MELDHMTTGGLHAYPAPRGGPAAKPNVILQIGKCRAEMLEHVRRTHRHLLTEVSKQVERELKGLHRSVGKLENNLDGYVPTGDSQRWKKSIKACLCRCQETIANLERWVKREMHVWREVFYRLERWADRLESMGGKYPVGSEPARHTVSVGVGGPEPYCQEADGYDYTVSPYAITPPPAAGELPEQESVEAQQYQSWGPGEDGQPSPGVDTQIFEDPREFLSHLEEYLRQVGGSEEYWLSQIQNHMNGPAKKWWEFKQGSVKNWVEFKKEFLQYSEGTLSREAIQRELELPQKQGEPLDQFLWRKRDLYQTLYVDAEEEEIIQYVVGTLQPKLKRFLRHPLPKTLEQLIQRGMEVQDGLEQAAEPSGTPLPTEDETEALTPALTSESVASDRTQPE

[2] = biological target: T1, Arc (activity-regulated, …); experiment: co-IP; whole cortical lysate of P15 or P60 WT mice; Ube3A or Arc immunoprecipitated, protein A beads; immunoblot
[3] = biological target: T1, Arc (activity-regulated, …); experiment: co-IP; whole hippocampal lysate of P30 WT mice; Arc immunoprecipitated, protein A beads; immunoblot for Arc and Ube3A
[4] = biological target: T1, Arc (activity-regulated, …); experiment: co-IP; nuclear and synaptoneurosome fractions of P30 WT mouse cortex, pellets resuspended in immunoprecipitation buffer; Arc immunoprecipitated; immunoblot
[5] = biological target: T2, E3 ubiquitin ligase Ube3A (mouse (endogenous in cortex and hippocampus)), O08759; experiment: co-IP; whole cortical lysate of P15 or P60 WT mice; Ube3A or Arc immunoprecipitated, protein A beads; immunoblot
T2 chain: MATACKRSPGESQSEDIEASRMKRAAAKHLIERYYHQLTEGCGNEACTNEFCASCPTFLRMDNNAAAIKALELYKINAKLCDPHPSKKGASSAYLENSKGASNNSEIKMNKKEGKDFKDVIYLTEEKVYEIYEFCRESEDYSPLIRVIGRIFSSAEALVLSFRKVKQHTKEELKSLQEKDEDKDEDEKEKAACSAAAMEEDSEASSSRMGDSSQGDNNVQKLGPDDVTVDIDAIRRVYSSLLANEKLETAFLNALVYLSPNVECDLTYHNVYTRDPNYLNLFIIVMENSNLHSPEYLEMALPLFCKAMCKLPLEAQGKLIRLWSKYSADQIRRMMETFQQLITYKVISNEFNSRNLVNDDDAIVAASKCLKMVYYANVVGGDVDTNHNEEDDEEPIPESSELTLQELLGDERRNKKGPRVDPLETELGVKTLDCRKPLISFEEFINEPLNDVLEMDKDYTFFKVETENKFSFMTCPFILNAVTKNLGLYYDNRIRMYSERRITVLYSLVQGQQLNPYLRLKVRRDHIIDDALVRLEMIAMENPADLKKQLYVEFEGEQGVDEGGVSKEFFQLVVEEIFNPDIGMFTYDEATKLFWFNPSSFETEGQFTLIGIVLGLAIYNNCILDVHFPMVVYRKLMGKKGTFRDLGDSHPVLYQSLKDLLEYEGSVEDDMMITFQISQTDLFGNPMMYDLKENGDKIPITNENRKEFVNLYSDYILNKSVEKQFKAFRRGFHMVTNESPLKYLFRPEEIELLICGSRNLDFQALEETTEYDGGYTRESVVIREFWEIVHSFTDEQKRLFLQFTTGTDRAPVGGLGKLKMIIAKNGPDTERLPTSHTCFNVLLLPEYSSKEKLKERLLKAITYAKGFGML

[6] = biological target: T2, E3 ubiquitin ligase Ube3A (mouse …); experiment: co-IP; whole cortical lysate of P30 WT mice dark-housed 24 h, then 2 h enriched environment; antibody 1 ug/mL 2 h at 4°C, protein A beads 1 h, three washes; immunoblot

Measured: binding

B1: E3 ubiquitin ligase Ube3A, O08759 1-870 (enzyme)
chain: MATACKRSPGESQSEDIEASRMKRAAAKHLIERYYHQLTEGCGNEACTNEFCASCPTFLRMDNNAAAIKALELYKINAKLCDPHPSKKGASSAYLENSKGASNNSEIKMNKKEGKDFKDVIYLTEEKVYEIYEFCRESEDYSPLIRVIGRIFSSAEALVLSFRKVKQHTKEELKSLQEKDEDKDEDEKEKAACSAAAMEEDSEASSSRMGDSSQGDNNVQKLGPDDVTVDIDAIRRVYSSLLANEKLETAFLNALVYLSPNVECDLTYHNVYTRDPNYLNLFIIVMENSNLHSPEYLEMALPLFCKAMCKLPLEAQGKLIRLWSKYSADQIRRMMETFQQLITYKVISNEFNSRNLVNDDDAIVAASKCLKMVYYANVVGGDVDTNHNEEDDEEPIPESSELTLQELLGDERRNKKGPRVDPLETELGVKTLDCRKPLISFEEFINEPLNDVLEMDKDYTFFKVETENKFSFMTCPFILNAVTKNLGLYYDNRIRMYSERRITVLYSLVQGQQLNPYLRLKVRRDHIIDDALVRLEMIAMENPADLKKQLYVEFEGEQGVDEGGVSKEFFQLVVEEIFNPDIGMFTYDEATKLFWFNPSSFETEGQFTLIGIVLGLAIYNNCILDVHFPMVVYRKLMGKKGTFRDLGDSHPVLYQSLKDLLEYEGSVEDDMMITFQISQTDLFGNPMMYDLKENGDKIPITNENRKEFVNLYSDYILNKSVEKQFKAFRRGFHMVTNESPLKYLFRPEEIELLICGSRNLDFQALEETTEYDGGYTRESVVIREFWEIVHSFTDEQKRLFLQFTTGTDRAPVGGLGKLKMIIAKNGPDTERLPTSHTCFNVLLLPEYSSKEKLKERLLKAITYAKGFGML
no binding: [1] | [2] | [3] | [4]

B2: Arc (activity-regulated, cytoskeleton-associated gene), Q9WV31 1-396 (protein)
chain: MELDHMTTGGLHAYPAPRGGPAAKPNVILQIGKCRAEMLEHVRRTHRHLLTEVSKQVERELKGLHRSVGKLENNLDGYVPTGDSQRWKKSIKACLCRCQETIANLERWVKREMHVWREVFYRLERWADRLESMGGKYPVGSEPARHTVSVGVGGPEPYCQEADGYDYTVSPYAITPPPAAGELPEQESVEAQQYQSWGPGEDGQPSPGVDTQIFEDPREFLSHLEEYLRQVGGSEEYWLSQIQNHMNGPAKKWWEFKQGSVKNWVEFKKEFLQYSEGTLSREAIQRELELPQKQGEPLDQFLWRKRDLYQTLYVDAEEEEIIQYVVGTLQPKLKRFLRHPLPKTLEQLIQRGMEVQDGLEQAAEPSGTPLPTEDETEALTPALTSESVASDRTQPE
no binding: [5] | [6]
